Measurements: the supplement of paper PMC10849652
The list shows a part of the results.

By UniProt entry, the sequences of proteins in these tests, tags left out. Where a name states a change or a piece, a line headed by the entry shows the natural chain unless it says otherwise.
UniProt P30049: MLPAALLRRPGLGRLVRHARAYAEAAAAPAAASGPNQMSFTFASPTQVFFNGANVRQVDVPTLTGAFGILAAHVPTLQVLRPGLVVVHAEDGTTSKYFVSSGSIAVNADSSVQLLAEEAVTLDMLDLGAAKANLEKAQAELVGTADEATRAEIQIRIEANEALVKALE
UniProt Q9UBB4: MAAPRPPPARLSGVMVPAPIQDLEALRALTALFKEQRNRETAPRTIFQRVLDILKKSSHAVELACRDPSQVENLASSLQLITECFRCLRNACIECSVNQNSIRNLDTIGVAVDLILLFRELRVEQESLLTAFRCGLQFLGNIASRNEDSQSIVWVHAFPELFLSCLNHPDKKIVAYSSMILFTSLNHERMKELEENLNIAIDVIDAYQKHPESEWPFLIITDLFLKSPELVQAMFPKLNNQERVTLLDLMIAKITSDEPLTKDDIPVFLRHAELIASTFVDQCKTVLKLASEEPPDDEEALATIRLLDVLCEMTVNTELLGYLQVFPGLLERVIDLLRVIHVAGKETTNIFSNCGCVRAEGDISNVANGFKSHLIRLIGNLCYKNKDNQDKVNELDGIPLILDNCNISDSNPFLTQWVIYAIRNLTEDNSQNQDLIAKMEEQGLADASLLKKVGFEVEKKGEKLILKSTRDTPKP
UniProt P27449, whole entry, looked up: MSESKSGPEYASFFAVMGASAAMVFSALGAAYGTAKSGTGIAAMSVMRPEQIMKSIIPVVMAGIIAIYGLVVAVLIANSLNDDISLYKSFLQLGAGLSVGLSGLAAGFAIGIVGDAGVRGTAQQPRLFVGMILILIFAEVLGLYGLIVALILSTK
UniProt O94817, whole entry, looked up: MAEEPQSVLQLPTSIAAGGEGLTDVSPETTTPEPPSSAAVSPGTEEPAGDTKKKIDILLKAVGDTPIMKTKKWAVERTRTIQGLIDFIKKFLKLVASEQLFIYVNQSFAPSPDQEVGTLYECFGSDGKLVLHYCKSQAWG
UniProt Q8NCR0: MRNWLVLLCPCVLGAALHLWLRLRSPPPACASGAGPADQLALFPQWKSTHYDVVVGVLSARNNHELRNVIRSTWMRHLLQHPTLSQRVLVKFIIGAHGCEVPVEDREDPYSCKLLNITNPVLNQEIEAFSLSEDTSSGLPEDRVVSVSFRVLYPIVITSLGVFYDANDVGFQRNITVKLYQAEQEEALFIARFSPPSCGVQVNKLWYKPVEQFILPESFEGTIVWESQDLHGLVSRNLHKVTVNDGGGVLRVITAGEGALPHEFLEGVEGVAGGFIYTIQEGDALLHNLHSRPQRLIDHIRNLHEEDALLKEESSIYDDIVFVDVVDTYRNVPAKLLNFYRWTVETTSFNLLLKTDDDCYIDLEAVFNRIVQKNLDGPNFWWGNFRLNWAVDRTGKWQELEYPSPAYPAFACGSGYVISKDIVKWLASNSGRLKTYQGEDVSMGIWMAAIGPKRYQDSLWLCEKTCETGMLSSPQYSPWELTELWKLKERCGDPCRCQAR
UniProt Q13535: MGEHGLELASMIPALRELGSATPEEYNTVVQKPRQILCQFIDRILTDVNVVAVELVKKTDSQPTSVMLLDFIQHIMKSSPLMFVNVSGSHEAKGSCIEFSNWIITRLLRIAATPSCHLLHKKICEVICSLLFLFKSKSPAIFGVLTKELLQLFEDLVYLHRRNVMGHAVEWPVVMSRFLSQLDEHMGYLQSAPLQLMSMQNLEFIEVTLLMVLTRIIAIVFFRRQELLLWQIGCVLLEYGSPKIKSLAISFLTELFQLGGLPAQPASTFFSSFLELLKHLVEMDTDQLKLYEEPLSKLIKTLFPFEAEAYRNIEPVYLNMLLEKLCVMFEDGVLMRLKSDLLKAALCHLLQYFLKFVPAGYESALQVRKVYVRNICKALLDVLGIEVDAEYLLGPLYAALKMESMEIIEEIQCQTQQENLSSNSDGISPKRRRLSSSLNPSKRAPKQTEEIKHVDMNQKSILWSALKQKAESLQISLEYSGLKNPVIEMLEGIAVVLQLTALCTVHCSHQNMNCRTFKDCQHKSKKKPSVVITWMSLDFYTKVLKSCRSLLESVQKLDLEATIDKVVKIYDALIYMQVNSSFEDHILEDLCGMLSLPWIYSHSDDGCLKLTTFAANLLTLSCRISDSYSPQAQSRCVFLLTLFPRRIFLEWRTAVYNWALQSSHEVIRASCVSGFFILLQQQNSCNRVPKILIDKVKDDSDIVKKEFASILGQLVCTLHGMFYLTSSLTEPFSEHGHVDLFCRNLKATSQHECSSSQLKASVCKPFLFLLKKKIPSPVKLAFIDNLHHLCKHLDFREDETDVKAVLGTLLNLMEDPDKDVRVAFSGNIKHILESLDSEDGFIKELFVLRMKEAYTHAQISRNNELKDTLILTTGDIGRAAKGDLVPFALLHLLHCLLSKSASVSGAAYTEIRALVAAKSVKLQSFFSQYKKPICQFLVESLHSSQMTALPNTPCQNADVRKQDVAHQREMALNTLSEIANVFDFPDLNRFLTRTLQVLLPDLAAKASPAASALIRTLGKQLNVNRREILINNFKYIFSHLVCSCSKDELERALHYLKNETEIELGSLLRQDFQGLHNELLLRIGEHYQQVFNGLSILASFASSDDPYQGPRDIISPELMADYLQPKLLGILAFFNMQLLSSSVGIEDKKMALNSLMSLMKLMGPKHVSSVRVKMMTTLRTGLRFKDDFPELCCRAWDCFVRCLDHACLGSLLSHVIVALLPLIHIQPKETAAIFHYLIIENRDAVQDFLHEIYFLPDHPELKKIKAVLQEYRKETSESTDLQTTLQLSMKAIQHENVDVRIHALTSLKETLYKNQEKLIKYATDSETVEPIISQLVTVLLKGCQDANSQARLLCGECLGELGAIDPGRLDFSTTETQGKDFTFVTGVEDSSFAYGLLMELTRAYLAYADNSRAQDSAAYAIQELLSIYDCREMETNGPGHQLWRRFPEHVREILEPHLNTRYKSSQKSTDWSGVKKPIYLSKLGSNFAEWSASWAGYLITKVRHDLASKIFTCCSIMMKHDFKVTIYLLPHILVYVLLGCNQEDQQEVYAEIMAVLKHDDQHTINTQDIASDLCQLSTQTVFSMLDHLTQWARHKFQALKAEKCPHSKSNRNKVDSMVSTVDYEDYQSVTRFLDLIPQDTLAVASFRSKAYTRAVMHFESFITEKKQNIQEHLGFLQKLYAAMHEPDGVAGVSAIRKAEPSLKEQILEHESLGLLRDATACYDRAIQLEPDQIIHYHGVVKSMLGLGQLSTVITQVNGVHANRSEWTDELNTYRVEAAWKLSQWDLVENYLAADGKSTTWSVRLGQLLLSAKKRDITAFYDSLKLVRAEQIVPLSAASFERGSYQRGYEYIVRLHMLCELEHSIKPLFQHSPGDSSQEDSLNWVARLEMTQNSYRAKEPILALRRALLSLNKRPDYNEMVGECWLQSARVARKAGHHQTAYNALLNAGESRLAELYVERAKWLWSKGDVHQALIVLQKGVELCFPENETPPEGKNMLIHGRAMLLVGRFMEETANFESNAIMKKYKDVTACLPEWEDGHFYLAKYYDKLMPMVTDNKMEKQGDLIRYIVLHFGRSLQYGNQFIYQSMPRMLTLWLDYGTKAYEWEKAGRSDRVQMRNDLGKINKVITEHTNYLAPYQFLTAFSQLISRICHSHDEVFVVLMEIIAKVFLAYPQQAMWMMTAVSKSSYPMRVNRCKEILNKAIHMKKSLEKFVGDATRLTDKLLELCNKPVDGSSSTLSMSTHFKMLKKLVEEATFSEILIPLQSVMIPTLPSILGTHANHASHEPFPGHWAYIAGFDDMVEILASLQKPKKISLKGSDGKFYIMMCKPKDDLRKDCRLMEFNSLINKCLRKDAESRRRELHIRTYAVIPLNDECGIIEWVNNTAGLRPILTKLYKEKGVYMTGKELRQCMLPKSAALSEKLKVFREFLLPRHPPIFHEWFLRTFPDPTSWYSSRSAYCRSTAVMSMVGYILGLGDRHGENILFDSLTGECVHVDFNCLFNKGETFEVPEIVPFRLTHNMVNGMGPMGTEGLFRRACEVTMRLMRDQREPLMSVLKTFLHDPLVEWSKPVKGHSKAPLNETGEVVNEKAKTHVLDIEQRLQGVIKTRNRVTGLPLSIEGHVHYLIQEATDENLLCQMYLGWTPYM
UniProt Q9Y576: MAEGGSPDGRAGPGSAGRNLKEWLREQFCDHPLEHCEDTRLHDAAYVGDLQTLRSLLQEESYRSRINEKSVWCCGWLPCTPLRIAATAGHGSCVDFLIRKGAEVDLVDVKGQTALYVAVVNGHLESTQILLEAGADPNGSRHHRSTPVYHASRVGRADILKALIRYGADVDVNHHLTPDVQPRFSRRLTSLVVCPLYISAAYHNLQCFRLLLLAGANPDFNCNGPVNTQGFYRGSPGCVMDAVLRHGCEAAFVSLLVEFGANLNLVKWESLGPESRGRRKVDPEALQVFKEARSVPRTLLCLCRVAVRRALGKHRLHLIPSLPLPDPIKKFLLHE
UniProt Q9UN42: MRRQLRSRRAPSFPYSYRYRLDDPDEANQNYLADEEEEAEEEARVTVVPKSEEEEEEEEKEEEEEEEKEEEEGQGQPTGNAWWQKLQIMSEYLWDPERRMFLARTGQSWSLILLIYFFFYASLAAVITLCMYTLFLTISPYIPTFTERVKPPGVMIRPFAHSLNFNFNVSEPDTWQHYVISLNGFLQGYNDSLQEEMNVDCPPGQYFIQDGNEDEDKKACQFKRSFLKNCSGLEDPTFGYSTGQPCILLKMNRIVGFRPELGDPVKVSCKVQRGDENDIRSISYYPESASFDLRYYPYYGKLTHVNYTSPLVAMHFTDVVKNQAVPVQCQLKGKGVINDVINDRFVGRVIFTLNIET
UniProt P18847: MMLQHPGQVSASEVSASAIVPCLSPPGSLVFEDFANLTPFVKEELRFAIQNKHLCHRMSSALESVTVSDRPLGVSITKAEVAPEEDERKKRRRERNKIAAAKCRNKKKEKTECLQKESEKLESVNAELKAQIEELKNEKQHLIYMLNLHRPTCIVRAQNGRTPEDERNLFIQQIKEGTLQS
UniProt P0C7T5: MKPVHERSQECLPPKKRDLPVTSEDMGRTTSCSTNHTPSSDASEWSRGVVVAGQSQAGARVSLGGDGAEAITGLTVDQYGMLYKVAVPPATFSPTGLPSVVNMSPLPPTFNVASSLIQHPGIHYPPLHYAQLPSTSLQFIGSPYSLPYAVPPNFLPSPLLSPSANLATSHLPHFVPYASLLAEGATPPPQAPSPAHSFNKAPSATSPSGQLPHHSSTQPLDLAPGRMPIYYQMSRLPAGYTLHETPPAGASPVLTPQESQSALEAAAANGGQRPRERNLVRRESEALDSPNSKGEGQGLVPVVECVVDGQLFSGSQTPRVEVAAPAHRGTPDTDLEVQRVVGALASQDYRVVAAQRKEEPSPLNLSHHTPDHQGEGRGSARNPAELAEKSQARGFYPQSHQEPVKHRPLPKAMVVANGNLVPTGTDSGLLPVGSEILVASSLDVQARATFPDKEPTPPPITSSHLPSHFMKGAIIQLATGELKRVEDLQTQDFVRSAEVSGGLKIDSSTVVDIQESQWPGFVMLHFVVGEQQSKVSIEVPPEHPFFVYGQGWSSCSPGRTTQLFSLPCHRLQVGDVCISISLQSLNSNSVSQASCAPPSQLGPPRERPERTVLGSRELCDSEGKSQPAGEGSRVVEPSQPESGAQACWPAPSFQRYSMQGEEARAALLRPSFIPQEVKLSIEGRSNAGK
UniProt Q6UW56: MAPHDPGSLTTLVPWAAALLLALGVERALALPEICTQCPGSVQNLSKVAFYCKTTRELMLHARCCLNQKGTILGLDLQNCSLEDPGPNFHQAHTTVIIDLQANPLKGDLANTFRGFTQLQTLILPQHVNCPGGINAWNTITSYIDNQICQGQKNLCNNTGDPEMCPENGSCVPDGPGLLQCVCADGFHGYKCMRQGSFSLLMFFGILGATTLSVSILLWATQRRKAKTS
UniProt Q9NWL6: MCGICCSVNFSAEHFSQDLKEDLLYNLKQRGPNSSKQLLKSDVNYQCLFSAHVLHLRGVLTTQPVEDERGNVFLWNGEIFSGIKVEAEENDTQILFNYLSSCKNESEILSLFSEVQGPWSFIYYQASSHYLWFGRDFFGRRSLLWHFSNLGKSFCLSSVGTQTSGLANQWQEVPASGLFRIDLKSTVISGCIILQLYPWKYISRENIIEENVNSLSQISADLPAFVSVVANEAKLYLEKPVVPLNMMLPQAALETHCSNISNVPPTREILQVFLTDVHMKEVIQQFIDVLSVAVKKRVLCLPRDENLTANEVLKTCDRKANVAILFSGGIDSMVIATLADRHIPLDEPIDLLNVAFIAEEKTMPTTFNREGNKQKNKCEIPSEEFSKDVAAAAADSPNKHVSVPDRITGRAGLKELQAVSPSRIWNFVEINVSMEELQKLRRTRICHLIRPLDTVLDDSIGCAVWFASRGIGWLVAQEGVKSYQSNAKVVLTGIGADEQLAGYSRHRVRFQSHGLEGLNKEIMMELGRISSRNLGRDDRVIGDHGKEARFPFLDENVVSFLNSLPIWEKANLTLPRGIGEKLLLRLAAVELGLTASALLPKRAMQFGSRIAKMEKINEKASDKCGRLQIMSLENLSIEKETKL

Assays:
Assay in all cases: log2 fold change, soluble protein after heating vs DMSO (PISA); higher = thermal stabilisation; K562 lysate, 10 uM; active = over 0.2 and 3.5 SD of the protein, either way, in both replicates (recomputed)
[1] = compound: C1=CC=C(C=C1)[C@H](COC2=CC3=C(C=C2)NC(=O)N3)NC(=O)C4=CC=CN(C4=O)CC5=CC(=C(C=C5)F)F
Summary of the method: (§1)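 Soluble protein was defined as the supernatant remaining after 21,000xg for 90 min, following pooling of heated aliquots and adjustment to 0.5% NP-40 at 4°C. Before that, crude K562 extract at 1 mg/mL protein in PBS pH 7.4 with 1 mM MgCl2 was treated with 10 μM compound for 30 min and heated for 3 min across 48°C-58°C. Quantification used TMTpro 16plex LC-MS/MS with channel sums equalised, and values are log-two fold changes in thermal stability relative to solvent controls from duplicates.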

[2] = compound: CC1=C(SC2=C1C(=N[C@H](C3=NN=C(N32)C)CC(=O)N)C4=CC=C(C=C4)Cl)C
Summary of the method: as §1

[3] = compound: CC1=C2C(=CC=C1)N=C(N(C2=O)C3=CC=CC=C3C)CN4C=NC5=C(N=CN=C54)N
Summary of the method: as §1

[4] = compound: Cc1sc2c(c1C)C(c1ccc(Cl)cc1)=N[C@@H](CC(=O)OC(C)(C)C)c1nnc(C)n1-2
Summary of the method: as §1

[5] = compound: c1ccc([C@@H]2C[C@H]2NC2CCNCC2)cc1
Summary of the method: as §1

Measured: log2 fold change

AZGP1 (UniProt P25311)
inactive: [1] -0.213 | [2] 0.062 | [3] -0.396 | [4] 0.172 | [5] -0.148

ATP5F1D (UniProt P30049)
inactive: [1] -0.018 | [2] -0.05 | [3] -0.039 | [4] -0.008 | [5] -0.048

ATP9B (UniProt O43861)
inactive: [1] 0.109 | [2] -0.028 | [3] 0.015 | [4] -0.019 | [5] -0.079

ATXN10 (UniProt Q9UBB4)
inactive: [1] -0.002 | [2] 0.001 | [3] 0.01 | [4] -0.015 | [5] 0.038

ATF7 isoform 6 (UniProt P17544)
inactive: [1] -0.084 | [2] 0.055 | [3] -0.148 | [4] 0.037 | [5] 0.086

ATP6V0C (UniProt P27449)
inactive: [1] 0.039 | [2] -0.117 | [3] 0.022 | [4] -0.069 | [5] -0.054

ASNS (UniProt P08243)
inactive: [1] 0.006 | [2] 0.021 | [3] 0.027 | [4] 0.057 | [5] 0.033

ATG12 (UniProt O94817)
inactive: [1] -0.098 | [2] -0.006 | [3] 0.015 | [4] 0.052 | [5] -0.07

ATP2C1 isoform 3 (UniProt P98194)
inactive: [5] 0.011

B3GALNT2 (UniProt Q8NCR0)
inactive: [4] 0.154

B3GNTL1 (UniProt Q67FW5)
inactive: [1] -0.13 | [2] 0 | [5] 0.092

ASXL2 (UniProt Q76L83)
inactive: [1] 0.017 | [2] 0.016 | [4] -0.187 | [5] 0.171

ATXN2L (UniProt H3BUF6)
inactive: [3] 0.026 | [4] 0.042 | [5] 0.033

ASXL1 (UniProt Q8IXJ9)
inactive: [1] 0.05 | [2] -0.074 | [4] 0.079 | [5] 0.022

ASS1 (UniProt P00966)
inactive: [1] -0.009 | [2] 0.026 | [4] 0.022 | [5] 0.037

ATE1 (UniProt O95260)
inactive: [1] 0 | [2] 0.07 | [5] -0.125

ATR (UniProt Q13535)
inactive: [1] -0.061 | [2] -0.036 | [3] -0.04 | [4] 0.003 | [5] -0.095

ATP5F1B (UniProt H0YI37)
inactive: [1] 0.348 | [2] -0.272 | [4] -0.333

ASB1 (UniProt Q9Y576)
inactive: [1] -0.03 | [2] 0.035 | [3] 0.045 | [5] 0.07

ASB16 (UniProt Q96NS5)
inactive: [4] -0.05

ATP1B4 (UniProt Q9UN42)
inactive: [4] 0.058

ATF3 (UniProt P18847)
inactive: [3] 0.071 | [4] -0.276 | [5] -0.25

ATP11C, A0A067XG54
inactive: [1] 0.246 | [2] -0.206 | [4] -0.044 | [5] -0.007

ATXN1L (UniProt P0C7T5)
inactive: [1] -0.06 | [2] -0.206 | [3] 0.089 | [5] 0.012

ATXN2 (UniProt F8WB06)
inactive: [4] -0.014

ATP5F1A (UniProt K7ENJ4)
inactive: [5] -0.043

ATPSCKMT (UniProt Q6P4H8)
inactive: [1] 0.111 | [2] -0.006 | [4] 0.023

ATF7IP2 (UniProt Q5U623)
inactive: [1] 0.162 | [2] 0.01 | [3] 0.101 | [5] 0.017

Reprinted at random: 2 records from the list, in no set order.
ATG12 (UniProt O94817)
inactive: [1] -0.098 | [2] -0.006 | [3] 0.015 | [4] 0.052 | [5] -0.07

ATXN1L (UniProt P0C7T5)
inactive: [1] -0.06 | [2] -0.206 | [3] 0.089 | [5] 0.012

(listing goes on)

ATXN7L3 isoform 2 (UniProt Q14CW9)
inactive: [1] 0.147 | [2] 0.017 | [4] -0.186 | [5] 0.15

ATRAID isoform 3 (UniProt Q6UW56)
inactive: [3] -0.018 | [4] -0.003

ATXN7L2 (UniProt Q5T6C5)
inactive: [3] 0.138

ATP5F1B (UniProt F8W0P7)
inactive: [3] -0.155 | [4] 0.074

ASNSD1 (UniProt Q9NWL6)
inactive: [1] 0.122 | [2] -0.035 | [5] -0.119
